This is a selection; strong and weak results do not stand in their true shares. At the low end of the ranking, values are background and their order means little.

The chains behind the UniProt entries cited, without tags or fusion partners. Where a name states a change or a piece, a line headed by the entry shows the natural chain unless it says otherwise.
UniProt Q01892: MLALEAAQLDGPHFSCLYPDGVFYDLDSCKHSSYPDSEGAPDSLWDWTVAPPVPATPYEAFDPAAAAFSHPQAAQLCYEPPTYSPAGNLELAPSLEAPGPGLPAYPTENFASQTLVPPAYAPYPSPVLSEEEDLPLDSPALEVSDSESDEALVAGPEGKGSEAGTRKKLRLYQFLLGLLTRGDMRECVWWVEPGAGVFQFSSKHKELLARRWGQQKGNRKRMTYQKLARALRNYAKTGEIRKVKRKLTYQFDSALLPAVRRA
UniProt P41161: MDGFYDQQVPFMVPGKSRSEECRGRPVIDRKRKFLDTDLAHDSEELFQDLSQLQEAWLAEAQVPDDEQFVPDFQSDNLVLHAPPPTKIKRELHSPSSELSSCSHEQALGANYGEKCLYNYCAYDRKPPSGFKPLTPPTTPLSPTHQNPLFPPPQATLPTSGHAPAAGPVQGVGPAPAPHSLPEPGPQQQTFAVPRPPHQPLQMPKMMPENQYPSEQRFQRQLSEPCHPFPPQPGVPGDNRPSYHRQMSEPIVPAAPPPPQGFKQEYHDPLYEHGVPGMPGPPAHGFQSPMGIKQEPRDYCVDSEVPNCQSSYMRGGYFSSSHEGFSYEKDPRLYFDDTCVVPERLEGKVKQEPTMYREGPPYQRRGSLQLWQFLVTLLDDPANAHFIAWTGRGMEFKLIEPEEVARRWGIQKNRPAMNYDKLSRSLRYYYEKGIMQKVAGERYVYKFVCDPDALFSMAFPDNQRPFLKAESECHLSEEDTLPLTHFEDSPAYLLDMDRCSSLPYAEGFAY

The first experiment deals with T1, EHF (UniProt Q9NZC4).
T1 sequence: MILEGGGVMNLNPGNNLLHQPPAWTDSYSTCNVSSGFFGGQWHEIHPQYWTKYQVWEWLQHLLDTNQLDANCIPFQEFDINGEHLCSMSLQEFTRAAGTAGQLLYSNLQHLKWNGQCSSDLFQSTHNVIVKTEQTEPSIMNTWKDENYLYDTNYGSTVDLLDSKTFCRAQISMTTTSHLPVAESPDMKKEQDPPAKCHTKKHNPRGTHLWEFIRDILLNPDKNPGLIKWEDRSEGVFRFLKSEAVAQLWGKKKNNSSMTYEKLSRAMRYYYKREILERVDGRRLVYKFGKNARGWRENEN
Put plainly: DAPPL (digital affinity profiling via proximity ligation, sequencing). The settings on record: 10 mM Tris-HCl pH 7.5, 50 mM NaCl, 1 mM DTT, 4% glycerol, room temperature, 30 min; GST-TFs on glutathione beads, 16-mer random dsDNA library, 0.1% …; high values mean tight binding; double strand, one strand shown; scale: fold enrichment (6-mer frequency, TF over GST control).
Turning to ACAATT, the binding signal worked out at 1.23.

AATGGT: the binding signal came out at 1.4.

The sequence TACAAA gave a binding signal of 1.2.

AGCGCC displayed a binding signal of 1.13.

The sequence CTAGCC displayed a binding signal of 1.

In the case of CCTGCG, the binding signal was 1.31.

Turning to CGCGGC, the binding signal turned out to be 0.982.

Sequence GATCTA displayed a binding signal of 0.987.

On to CGCGAT, for which the binding signal worked out at 0.937.

TCAATC gave a binding signal of 0.992.

Turning to CCCCAG, the binding signal worked out at 1.

As to ACCCTT, the binding signal was 1.18.

CCGGAC showed a binding signal of 1.56.

On to ATAAGT, for which the binding signal worked out at 1.04.

The sequence ACGCCG displayed a binding signal of 1.14.

TTTTTC: the binding signal stood at 1.23.

Turning to TGACTG, the binding signal is 0.969.

Turning to CAACCC, the binding signal came out at 1.16.

The sequence TAAACT returned a binding signal of 1.15.

In turn, CTAGAA returned a binding signal of 0.947.

The target of a further experiment is SPIB (UniProt Q01892). The experiment is described as above. The settings on record: 10 mM Tris-HCl pH 7.5, 50 mM NaCl, 1 mM DTT, 4% glycerol, room temperature, 30 min; GST-TFs on glutathione beads, 16-mer random dsDNA library, 0.1% …; high values mean tight binding; double strand, one strand shown; scale: fold enrichment (6-mer frequency, TF over GST control).
Sequence TGTGCA gave a binding signal of 1.18.

Sequence TACGTC showed a binding signal of 1.31.

Regarding ACAATT, the binding signal is 1.2.

The sequence TAAATT showed a binding signal of 1.3.

TAGTTC registered a binding signal of 1.51.

On to ATTGGG, for which the binding signal came out at 1.26.

Sequence ATAAGG returned a binding signal of 1.01.

In turn, CGCGGC gave a binding signal of 0.975.

TTAATA: the binding signal worked out at 1.22.

As for CCGTCA, the binding signal turned out to be 1.2.

The sequence CCGACT yielded a binding signal of 1.64.

For TAGAAT, the binding signal was 0.999.

For the sequence GATCTA, the binding signal turned out to be 1.06.

The sequence ACACCA had a binding signal of 0.881.

TTGCTC had a binding signal of 1.25.

Regarding TTTTCT, the binding signal was determined as 1.18.

TCAATC registered a binding signal of 1.04.

In the case of TTACGT, the binding signal came out at 0.962.

For the sequence CCCCAG, the binding signal was 0.963.

In the case of TTGCCC, the binding signal was determined as 1.33.

In turn, TTGAAA registered a binding signal of 1.1.

ACCCTT displayed a binding signal of 1.19.

CCGGAC gave a binding signal of 1.57.

With ATAAGT, the binding signal came out at 0.995.

As for AACTCT, the binding signal came to 1.28.

Consider ACGCCG, for which the binding signal was 1.

In turn, AATCAG returned a binding signal of 1.19.

In the case of TTCGAC, the binding signal is 1.45.

Take CAACCC: the binding signal turned out to be 1.26.

Take TAAACT: the binding signal stood at 1.23.

For TAGCTC, the binding signal came to 1.05.

For CTAGAA, the binding signal turned out to be 0.977.

Another experiment has as its target ETV5 (UniProt P41161). The experiment is described as above. The settings on record: 10 mM Tris-HCl pH 7.5, 50 mM NaCl, 1 mM DTT, 4% glycerol, room temperature, 30 min; GST-TFs on glutathione beads, 16-mer random dsDNA library, 0.1% …; high values mean tight binding; double strand, one strand shown; scale: fold enrichment (6-mer frequency, TF over GST control).
The sequence TGTGCA showed a binding signal of 1.15.

In turn, TACGTC yielded a binding signal of 1.13.

ACAATT showed a binding signal of 1.33.

TAAATT had a binding signal of 1.26.

In turn, AATGGT gave a binding signal of 1.46.

For TAGTTC, the binding signal was determined as 1.41.

TACAAA: the binding signal amounted to 1.15.

As for AGCGCC, the binding signal came out at 1.04.

In turn, ATTGGG registered a binding signal of 1.26.

In turn, ATAAGG gave a binding signal of 1.04.

With CTAGCC, the binding signal stood at 0.931.

For CCTGCG, the binding signal turned out to be 1.27.

Sequence CGCGGC returned a binding signal of 0.974.

For TTAATA, the binding signal was determined as 1.15.

CCGTCA displayed a binding signal of 1.23.

In turn, CCGACT showed a binding signal of 1.44.

Regarding TAGAAT, the binding signal came out at 1.03.

GATCTA: the binding signal turned out to be 0.99.

As to ACACCA, the binding signal worked out at 1.04.

For CGCGAT, the binding signal amounted to 0.933.

The sequence TTGCTC showed a binding signal of 1.41.

TTTTCT gave a binding signal of 1.28.

Sequence TCAATC came in with a binding signal of 0.991.

The sequence TTACGT showed a binding signal of 1.19.

CCCCAG yielded a binding signal of 0.981.

Turning to TTGCCC, the binding signal was 1.32.

TTGAAA gave a binding signal of 1.18.

For the sequence ACCCTT, the binding signal was determined as 1.25.

On to CCGGAC, for which the binding signal amounted to 1.57.

ATAAGT displayed a binding signal of 0.991.

AACTCT displayed a binding signal of 1.36.

For ACGCCG, the binding signal amounted to 1.12.

AATCAG gave a binding signal of 1.15.

For the sequence TTCGAC, the binding signal stood at 1.46.

The sequence TTTTTC gave a binding signal of 1.27.

In the case of TGACTG, the binding signal is 1.03.

Regarding CAACCC, the binding signal turned out to be 1.23.

As for TAAACT, the binding signal is 1.23.

In turn, TAGCTC displayed a binding signal of 1.25.

Consider CTAGAA, for which the binding signal was found to be 0.994.

The values are drawn from PMC7862700.
